Reference: paper PMC5083101
No constants are given. Whether binding was seen depends on the method and setting. In cells and extracts the contact can be indirect. Binding calls can cover weak binding; strength is not graded here.

Target: T1, alpha-dystroglycan (rabbit skeletal muscle) (rabbit (endogenous in skeletal muscle)) (UniProt Q28685)
T1 sequence: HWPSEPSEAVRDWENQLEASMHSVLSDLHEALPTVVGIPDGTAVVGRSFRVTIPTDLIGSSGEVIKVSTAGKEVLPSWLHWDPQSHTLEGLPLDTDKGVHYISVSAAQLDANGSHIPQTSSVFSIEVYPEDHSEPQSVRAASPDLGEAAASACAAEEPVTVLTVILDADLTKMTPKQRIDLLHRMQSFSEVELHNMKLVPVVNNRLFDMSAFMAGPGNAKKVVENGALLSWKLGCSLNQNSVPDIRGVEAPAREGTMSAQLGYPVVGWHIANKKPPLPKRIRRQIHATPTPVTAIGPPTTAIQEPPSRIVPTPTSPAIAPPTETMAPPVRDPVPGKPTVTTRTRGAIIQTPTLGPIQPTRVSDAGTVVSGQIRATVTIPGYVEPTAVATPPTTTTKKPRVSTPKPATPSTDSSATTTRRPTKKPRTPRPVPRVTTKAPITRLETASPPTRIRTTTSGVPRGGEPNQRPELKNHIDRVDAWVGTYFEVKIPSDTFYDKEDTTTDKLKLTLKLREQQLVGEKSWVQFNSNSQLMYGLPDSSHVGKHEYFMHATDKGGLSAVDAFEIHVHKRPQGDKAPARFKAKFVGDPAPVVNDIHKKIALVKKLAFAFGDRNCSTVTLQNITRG
Experiment: co-IP; anti-α-DG antibody IIH6 coupled to CNBr-activated Sepharose; WGA-enriched, digitonin-solubilised rabbit skeletal muscle microsomes; 0.1% digitonin, 50 mM Tris-HCl pH 7.4, 150 mM NaCl; eluted in 0.1 M triethylamine pH 11.5; Western blot

binding	Substance
binds	alpha-dystrobrevin (rabbit skeletal muscle)
binds	gamma-sarcoglycan (rabbit skeletal muscle)
